B1: Grx5 (protein, UniProt Q02784 30-150)
chain: LSTEIRKAIEDAIESAPVVLFMKGTPEFPKCGFSRATIGLLGNQGVDPAKFAAYNVLEDPELREGIKEFSEWPTIPQLYVNKEFIGGCDVITSMARSGELADLLEEAQALVPEEEEETKDR
B2: Bio2 (protein, UniProt P32451 17-375)
chain: TKYATNAAVKSTTASSEASTLGALQYALSLDEPSHSWTKSQLKEIYHTPLLELTHAAQLQHRKWHDPTKVQLCTLMNIKSGGCSEDCKYCAQSSRNDTGLKAEKMVKVDEVIKEAEEAKRNGSTRFCLGAAWRDMKGRKSAMKRIQEMVTKVNDMGLETCVTLGMVDQDQAKQLKDAGLTAYNHNIDTSREHYSKVITTRTYDDRLQTIKNVQESGIKACTGGILGLGESEDDHIGFIYTLSNMSPHPESLPINRLVAIKGTPMAEELADPKSKKLQFDEILRTIATARIVMPKAIIRLAAGRYTMKETEQFVCFMAGCNSIFTGKKMLTTMCNGWDEDKAMLAKWGLQPMEAFKYDRS
B3: Lip5 (protein, UniProt P32875 19-414)
chain: SSTIRCGTSATRPIRSNALNTDSDNASVRVPVGNSTEVENATSQLTGTSGKRRKGNRKRITEFKDALNLGPSFADFVSGKASKMILDPLEKARQNTEEAKKLPRWLKVPIPKGTNYHKLKGDVKELGLSTVCEEARCPNIGECWGGKDKSKATATIMLLGDTCTRGCRFCSVKTNRTPSKPDPMEPENTAEAIKRWGLGYVVLTTVDRDDLVDGGANHLAETVRKIKQKAPNTLVETLSGDFRGDLKMVDIMAQCGLDVYAHNLETVESLTPHVRDRRATYRQSLSVLERAKATVPSLITKTSIMLGLGETDEQITQTLKDLRNIQCDVVTFGQYMRPTKRHMKVVEYVKPEKFDYWKERALEMGFLYCASGPLVRSSYKAGEAFIENVLKKRNMK
B4: Aco2 (protein, UniProt P39533 15-789)
chain: ATHANMFPSVSKNFQTKVPPYAKLLTNLDKIKQITNNAPLTLAEKILYSHLCDPEESITSSDLSTIRGNKYLKLNPDRVAMQDASAQMALLQFMTTGLNQTSVPASIHCDHLIVGKDGETKDLPSSIATNQEVFDFLESCAKRYGIQFWGPGSGIIHQIVLENFSAPGLMMLGTDSHTPNAGGLGAIAIGVGGADAVDALTGTPWELKAPKILGVKLTGKLNGWSTPKDVITKLAGLLTVRGGTGYIVEYFGEGVSTLSCTGMATICNMGAEIGATTSTFPYQEAHKRYLQATNRAEVAEAADVALNKFNFLRADKDAQYDKVIEIDLSAIEPHVNGPFTPDLSTPISQYAEKSLKENWPQKVSAGLIGSCTNSSYQDMSRVVDLVKQASKAGLKPRIPFFVTPGSEQIRATLERDGIIDIFQENGAKVLANACGPCIGQWNREDVSKTSKETNTIFTSFNRNFRARNDGNRNTMNFLTSPEIVTAMSYSGDAQFNPLTDSIKLPNGKDFKFQPPKGDELPKRGFEHGRDKFYPEMDPKPDSNVEIKVDPNSDRLQLLEPFKPWNGKELKTNVLLKVEGKCTTDHISAAGVWLKYKGHLENISYNTLIGAQNKETGEVNKAYDLDGTEYDIPGLMMKWKSDGRPWTVIAEHNYGEGSAREHAALSPRFLGGEILLVKSFARIHETNLKKQGVLPLTFANESDYDKISSGDVLETLNLVDMIAKDGNNGGEIDVKITKPNGESFTIKAKHTMSKDQIDFFKAGSAINYIGNIRRNE
B5: Sdh2 (protein, UniProt P21801 21-266)
chain: TATTAAATHTPRLKTFKVYRWNPDEPSAKPHLQSYQVDLNDCGPMVLDALLKIKDEQDSTLTFRRSCREGICGSCAMNIGGRNTLACICKIDQNESKQLKIYPLPHMFIVKDLVPDLTNFYQQYKSIQPYLQRSSFPKDGTEVLQSIEDRKKLDGLYECILCACCSTSCPSYWWNQEQYLGPAVLMQAYRWLIDSRDQATKTRKAMLNNSMSLYRCHTIMNCTRTCPKGLNPGLAIAEIKKSLAFA
B6: Lys4 (protein, UniProt P49367 18-693)
chain: LKGQNLTEKIVQSYAVNLPEGKVVHSGDYVSIKPAHCMSHDNSWPVALKFMGLGATKIKNPSQIVTTLDHDIQNKSEKNLTKYKNIENFAKKHHIDHYPAGRGIGHQIMIEEGYAFPLNMTVASDSHSNTYGGLGSLGTPIVRTDAAAIWATGQTWWQIPPVAQVELKGQLPQGVSGKDIIVALCGLFNNDQVLNHAIEFTGDSLNALPIDHRLTIANMTTEWGALSGLFPVDKTLIDWYKNRLQKLGTNNHPRINPKTIRALEEKAKIPKADKDAHYAKKLIIDLATLTHYVSGPNSVKVSNTVQDLSQQDIKINKAYLVSCTNSRLSDLQSAADVVCPTGDLNKVNKVAPGVEFYVAAASSEIEADARKSGAWEKLLKAGCIPLPSGCGPCIGLGAGLLEPGEVGISATNRNFKGRMGSKDALAYLASPAVVAASAVLGKISSPAEVLSTSEIPFSGVKTEIIENPVVEEEVNAQTEAPKQSVEILEGFPREFSGELVLCDADNINTDGIYPGKYTYQDDVPKEKMAQVCMENYDAEFRTKVHPGDIVVSGFNFGTGSSREQAATALLAKGINLVVSGSFGNIFSRNSINNALLTLEIPALIKKLREKYQGAPKELTRRTGWFLKWDVADAKVVVTEGSLDGPVILEQKVGELGKNLQEIIVKGGLEGWVKSQL
B7: Bol3 (endogenous) (protein, UniProt P39724 1-118)
chain: MKLPQTMLRSISVKHVRWPRILTGSKLWYSTQMAMTPEEKMITDKLQQELEPEVCKVQDVSGGCGSMFAINITSKKFNGLSLIKQHQLVNRILRDDISRWHGLQLTTKKSTGKGPASS
B8: Aco1 (protein, UniProt P19414 17-778)
chain: ATVSNLTRDSKVNQNLLEDHSFINYKQNVETLDIVRKRLNRPFTYAEKILYGHLDDPHGQDIQRGVSYLKLRPDRVACQDATAQMAILQFMSAGLPQVAKPVTVHCDHLIQAQVGGEKDLKRAIDLNKEVYDFLASATAKYNMGFWKPGSGIIHQIVLENYAFPGALIIGTDSHTPNAGGLGQLAIGVGGADAVDVMAGRPWELKAPKILGVKLTGKMNGWTSPKDIILKLAGITTVKGGTGKIVEYFGDGVDTFSATGMGTICNMGAEIGATTSVFPFNKSMIEYLEATGRGKIADFAKLYHKDLLSADKDAEYDEVVEIDLNTLEPYINGPFTPDLATPVSKMKEVAVANNWPLDVRVGLIGSCTNSSYEDMSRSASIVKDAAAHGLKSKTIFTVTPGSEQIRATIERDGQLETFKEFGGIVLANACGPCIGQWDRRDIKKGDKNTIVSSYNRNFTSRNDGNPQTHAFVASPELVTAFAIAGDLRFNPLTDKLKDKDGNEFMLKPPHGDGLPQRGYDAGENTYQAPPADRSTVEVKVSPTSDRLQLLKPFKPWDGKDAKDMPILIKAVGKTTTDHISMAGPWLKYRGHLENISNNYMIGAINAENKKANCVKNVYTGEYKGVPDTARDYRDQGIKWVVIGDENFGEGSSREHAALEPRFLGGFAIITKSFARIHETNLKKQGLLPLNFKNPADYDKINPDDRIDILGLAELAPGKPVTMRVHPKNGKPWDAVLTHTFNDEQIEWFKYGSALNKIKADEKK
B9: Isa2 (protein, UniProt Q12425 1-185)
chain: MQAKLLFTRLNFRRPSTTLRQFPLTCFLFHSKAFYSDLVTKEPLITPKRIINKTPGLNLSISERASNRLAEIYRNSKENLRISVESGGCHGFQYNLTLEPATKPDIKNDVKDKEFSDDLDDDDSKDIIYVLPEDKGRVIIDSKSLNILNNTTLTYTNELIGSSFKIINGSLKSSCGCGSSFDIEN
B10: Prx1 (protein, UniProt P34227 14-261)
chain: AWTLPKQAHLQSQTIKTFATAPILCKQFKQSDQPRLRINSDAPNFDADTTVGKINFYDYLGDSWGVLFSHPADFTPVCTTEVSAFAKLKPEFDKRNVKLIGLSVEDVESHEKWIQDIKEIAKVKNVGFPIIGDTFRNVAFLYDMVDAEGFKNINDGSLKTVRSVFVIDPKKKIRLIFTYPSTVGRNTSEVLRVIDALQLTDKEGVVTPINWQPADDVIIPPSVSNDEAKAKFGQFNEIKPYLRFTKSK

Residue numbers refer to the chain shown, from its start. These are yes or no findings as the source states them, for the method shown. In cells and extracts the contact can be indirect. Here binding means that the protein was enriched with, or labelled near, the bait; the list need not be complete. For some of these results: A no says only that the protein was not detected with the bait. For some of these results: Tags and fused reporters may be left off the sequences shown.

For one experiment, the target named is Nfu1-Strep (S. cerevisiae). Description: affinity purification with mass spectrometry; Strep-tagged bait from low-copy plasmids in the corresponding single deletion mutants; Strep-Tactin purification from solubilized mitochondria; eluates analysed on a Q-Exactive; multiple independent analyses.
On to B1, for which the binding entry was “binds”.
Same read-out and setting: the same measure for B2: “binds”; for B3: “binds”; for B4: “binds”.
Still for that read-out and setting: next, B5: “binds”; B6: “binds”; B7: “no binding”.
Same read-out and setting: next, B8: “binds”.

A further experiment concerns the target T1, Bol3-Strep (S. cerevisiae) (UniProt P39724).
T1 sequence: B7 chain
The experiment is described as above.
As for B1, the binding entry is given as “binds”.
On the same count and under the same terms, the same measure for B2: “binds”; for B3: “binds”.
Still for that read-out and setting: the same measure for B4: “binds”; for B5: “binds”.
As for B6, the binding result is reported as “binds”.
Still for that read-out and setting: the same measure for B8: “binds”.

Another experiment has as its target T2, Bol3m (H^101C Bol3), Strep-tagged (S. cerevisiae) (UniProt P39724).
T2 sequence: B7 chain with H101C
Described as above.
Take B2: the binding entry is recorded as “binds”.
Same read-out and setting: the same measure for B3: “binds”; for B4: “binds”; for B9: “binds”.
Same read-out and setting: next, B6: “binds”; B8: “binds”.

In the next experiment the target is T3, Bol1m (H^93C Bol1), Strep-tagged (S. cerevisiae) (UniProt Q3E793).
T3 sequence: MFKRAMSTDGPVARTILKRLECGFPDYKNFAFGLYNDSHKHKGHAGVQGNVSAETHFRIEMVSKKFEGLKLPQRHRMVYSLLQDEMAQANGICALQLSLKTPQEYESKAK
The description is as above.
B1: the binding result is “no binding”.

In the next experiment the target is T4, Bol1-Strep (S. cerevisiae) (UniProt Q3E793).
T4 sequence: T3 sequence with C93H
The description is as above.
Consider B1, for which the binding result was “binds”.
With B2, the binding entry is “no binding”.
In the case of B3, the binding entry is “no binding”.
Same read-out and setting: the same measure for B10: “binds”; for B4: “no binding”; for B9: “no binding”.
Still for that read-out and setting: the same measure for B5: “no binding”; for B6: “no binding”; for B8: “no binding”.

The values above are taken from publication PMC5014551.
